Results on two substances are retold here after patent US11697690 (dated 2023).

This data set can be described thus: peptide synthesis. Particulars: late stage modification step; for final HPLC purity: reversed-phase HPLC.

For the substance Aminooxy-Cys-MC-VC-PABC-MMAE, the step yield stood at 62% and the “final HPLC purity” value is given as more than 96%.
In the same order, the values of Aminooxy-Cys-MC-VC-PABC-PEG8-Dol10 are 46% and more than 96%.
